Data published in patent US9669003B2, “Use of flavone and flavanone derivatives in preparation of sedative and hypnotic drugs” (priority 2012, dated 2017).
Some results were stated once for a whole list of compounds, not compound by compound.

Assays:
Format in all cases: in vivo
Kunming mice [1] = experiment: Influence on autonomic activity of normal mice (ZIL-2 mice autonomic activity meter, counts within 10 min); conditions: 1 h and 2 h after drug administration; low, middle and high dose (25, 50, 100 mg/kg); P<0.05˜P<0.001, dose-related
From the text: (§1) 1.1 Animals for experiments: Kunming mice, weighting 18.9˜22.2 g for females, and 20.2˜23.0 g for males, licensed under SCXK-(Ji) 2007-0003, and provided by The experimental animal centre, Jilin University.
(§2) 1.2 Chemicals for experiments: The flavone derivatives provided in Examples 1-41 and the flavanone derivatives provided in Examples 42-71 are all formulated with 0.5% sodium carboxymethyl cellulose as solutions with required concentrations.
(§3) 1.3 Grouping of animals: 6420 animals are employed in the entire experiments and 2140 of the animals are randomly divided into 214 groups by gender, and the […] include: control group, low dosage group for each experimental drugs (25 mg/kg), medium dosage group for each experimental drugs (50 mg/kg), and high dosage group for each experimental drugs (100 mg/kg). Each group has 10 animals and either female or male constitutes half of the group. The groups are used in behavior observation and voluntary action observation. The other 4280 animals are randomly divided into 214 groups by gender respectively (the grouping way is the same with that described above). Each group has 20 animals and either female or male constitutes half of the group. In each group, 10 animals are used in hypnosis experimentations with pentobarbital sodium doses below the threshold, and the other 10 animals are used hypnosis experimentations with pentobarbital sodium doses at the threshold.
1.4 Experimental instrument and agents: ZIL-2 mice autonomic activity meter, production of Institute of Materia Medica of Chinese Academy of Medical Sciences; pentobarbital sodium, Lot: 100808, 25 g/bottle, Beijing Chemical Reagent Company equipment imported from Germany.
1.5.2 Influence on Autonomic Activity of Normal Mice
After observing the general behavior, in 1 h, 2 h and 24 h after drug administration, respectively, ZIL-2 mice autonomic activity meter is put respectively. Number of autonomic activities of each group of mice is measured within 10 min. Results among groups are compared.
(§4) Number of autonomic activities is detected by leneve Test for homogeneity of variance. If the homogeneity of variance is good (P>0.05), statistical analysis is performed with ANOVA. If ANOVA have statistical significance (P≦0.05), Dunnett's test for multiple comparisons analysis is performed. Number of animals of sleeping mice is applied of ANOVA. Incidence rate of animal asleep is applied of χ2 test. Sleep latency and sleep duration are recorded in min, averaged by group, represented by standard deviation, and undergo statistical analysis using ANOVA.

Kunming mice [2] = experiment: Influence on hypnosis effect with pentobarbital sodium doses below the threshold (25 mg/kg i.p.); conditions: sodium pentobarbital 25 mg/kg i.p. 60 min after drug; observed 30 min; low, middle and high dose; P<0.05˜P<0.001
From the text: as §1, §2, §3
1.5.3 Influence on Hypnosis Effect with Mice Pentobarbital Sodium Doses Below the Threshold
(§5) The drug is intragastric administered in mice for single time, 2 animals of each group are given drug per round with the dosing interval of 40 min (±5 min). According to the administration round, in 60 min (±5 min) of each round after the drug administration, the animals were intraperitoneally injected 0.3% sodium pentobarbital 25 mg/kg, respectively. Sleep condition of the animals were observed within 30 min (under sleep determination standard of loss of righting reflex more than 1 min). After animals undergo loss of righting reflex, number of the animals is recorded, to calculate sleep percentage.
as §4

Kunming mice [3] = experiment: Influence on hypnosis effect with pentobarbital sodium doses at the threshold (50 mg/kg i.p.); conditions: sodium pentobarbital 50 mg/kg i.p. 60 min after drug; low, middle and high dose; P<0.05˜P<0.001
From the text: as §1, §2, §3
1.5.4 Influence on Hypnosis Effect with Mice Pentobarbital Sodium Doses at the Threshold
as §5, with “50” for “25”, “Time to fall asleep (sleep latency) and sleep duration” for “Sleep condition”, “recorded” for “observed”, “under” for “30 min (under”, “min.” for “min). After animals undergo loss of righting reflex, number of the animals is recorded, to calculate sleep percentage.”
as §4

Structure (SMILES)	autonomic activities compared with the control group (Kunming mice [1])	incidence of sleep compared with the control group (Kunming mice [2])	time to fall asleep (sleep latency) compared with the control group (Kunming mice [3])
CC=Cc1cc(Cc2ccccc2)c2c(=O)cc(-c3cc(C#N)c([N+](=O)[O-])c(Cc4ccccc4)c3)oc2c1 [Example 25]	significantly reduced	increased at different level	reduced at different level
CCc1cc(C2CC(=O)c3cc([N+](=O)[O-])c(SC#N)c(C4CCNC4)c3O2)ccc1C(=O)c1ccccc1 (stereo not drawn) [Example 54]	significantly reduced	increased at different level	reduced at different level
C=Cc1cc(-c2cc(=O)c3c(C4CCSC4)cc(C(N)=O)cc3o2)cc(N)c1CC (stereo not drawn) [Example 17]	significantly reduced	increased at different level	reduced at different level
COc1ccc(C2CC(=O)c3cc(CCS(=O)(=O)O)c(C4CCNC4)c(N)c3O2)cc1SC#N (stereo not drawn) [Example 55]	significantly reduced	increased at different level	reduced at different level
C#Cc1ccc(-c2cc(=O)c3cc(F)c(C(=O)O)c(O)c3o2)cc1CCCCCCCCCCCCCCCCCCCC [Example 33]	significantly reduced	increased at different level	reduced at different level
CCCc1cc2c(=O)cc(-c3ccc(C(=O)O)c(C(N)=O)c3)oc2c(I)c1CCS(=O)(=O)O [Example 35]	significantly reduced	increased at different level	reduced at different level
CCCc1cc(O)cc2c1C(=O)CC(c1ccc(-c3ccccc3)c([N+](=O)[O-])c1)O2 (stereo not drawn) [Example 70]	significantly reduced	increased at different level	reduced at different level
Cc1cc(C2CC(=O)c3c(cccc3[N+](=O)[O-])O2)ccc1Oc1ccccc1 (stereo not drawn) [Example 63]	significantly reduced	increased at different level	reduced at different level
C=Cc1c(C#N)cc(-c2cc(=O)c3c(C=CC)cc(Cc4ccccc4)cc3o2)cc1[N+](=O)[O-] [Example 20]	significantly reduced	increased at different level	reduced at different level
COc1c(O)cc(C2CC(=O)c3c(O)cc(O)cc3O2)cc1C(=O)O (stereo not drawn) [Example 50]	significantly reduced	increased at different level	reduced at different level
